SMILES strings stand for the structures. The list shows a part of the results.

The test system of the test is T1, CTL2-GFP (C. trachomatis L2/434/Bu, GFP-expressing).
T1 construct: L2/434/Bu, GFP-expressing
On the set-up: species or system HeLa; Intracellular C. trachomatis growth in HeLa cells, bulk GFP fluorescence relative to DMSO. Particulars: bulk GFP, single well; 28.5 h, 10 µM; inhibitor.
Turning to `CCc1cc2c(=O)c(-c3nc(C)cs3)c(CCCC(=O)O)oc2cc1O` [CBK264834], the “% of control remaining” value was 131.526%.
For the compound `OC1CCCCC1C1(NC(=S)Nc2ccccc2)CCCCC1` (centres unmarked) [CBK026324], the “% of control remaining” value is listed as 107.5%.
The result for `CC(=O)N(Cc1ccccc1)C1CCCc2c1[nH]c1ccc(C)cc21` (centres unmarked) [CBK261810] reads 124.813%; that for `COc1ccc(Nc2cc(-c3cccc(NC(C)=O)c3)ncn2)cn1` [CBK037125], 115.869%; that for `O=C(NCc1ccco1)c1cc(-c2ccc3[nH]ccc3c2)cnc1NCCOc1ccccc1` [CBK106388], 98.3517%.
Take `CCCc1n[nH]c(=S)n1CC(=O)Nc1cccc(-n2ncc(C(=O)OCC)c2C)c1` [CBK297746]: the “% of control remaining” value is listed as 98.8269%.
For the compound `O=C(Cn1cnc2ccc(F)cc2c1=O)N1CCOC2CCCC21` (centres unmarked) [CBK304932], the “% of control remaining” value is listed as 154.517%.
For `CC(NC(=O)N1CCc2ccccc2C1)c1ccccc1` (centres unmarked) [CBK155310], the “% of control remaining” value is on record as 108.2%.
For `CCOC(=O)c1c(NC(=O)CN2CCN(c3ccc(F)cc3)CC2)sc2c1CCCC2` [CBK265536], the “% of control remaining” value was 114.001%.
On to `O=C(NCc1ccc2c(c1)OCO2)c1ccc(S(=O)(=O)N2CCCC2)cc1` [CBK263590], for which the “% of control remaining” value is reported as 108.789%.
Take `Fc1cccc(NCc2ccccc2)n1` [CBK000149]: the “% of control remaining” value amounted to 92.3388%.
As for `O=C(COc1ccc(F)cc1)Nc1ccc2[nH]ccc2c1` [CBK159689], the figure is 125.885%; as for `CC(C)(C)OC(=O)N1CCC(COc2ncc(-c3ccc(C(=O)N4CCC[C@@H]4CO)nc3)cn2)CC1` [CBK170022], 104.07%; as for `CC(C)CC(=O)N1CCC(Cc2ccccc2-c2cccs2)(C(=O)NC(C)C)CC1` [CBK285898], 115.679%.
For the compound `COC(=O)C1C(=O)Oc2ccc3ccccc3c2C1C(C)C(=O)c1ccc(Br)cc1` (centres unmarked) [CBK266126], the “% of control remaining” value is recorded as 129.635%.
Take `CN1CCC(Oc2ncccc2OCc2ccccc2)CC1` [CBK036311]: the “% of control remaining” value is 101.672%.
The result for `O=[N+]([O-])c1cc(S(=O)(=O)Nc2ccc3cn[nH]c3c2)ccc1Cl` [CBK067160] reads 109.677%.
With `OC1(c2cccnc2F)CCN(Cc2ccc(F)cc2F)CC1` [CBK284369], the “% of control remaining” value is 123.555%.
As for `COC(=O)c1csc2nc(NCCCO)sc12` [CBK058832], the figure is 105.189%; as for `Cc1noc(C)c1CN(C)C(=O)NC1CCCc2c1cnn2CCO` (centres unmarked) [CBK306283], 112.901%; as for `COC[C@@H]1CCCN1S(=O)(=O)c1ccc(OC(F)(F)F)cc1` [CBK044338], 128.977%.
For the compound `Cc1noc(C)c1NC(=O)c1ccc2nccnc2c1` [CBK200221], the “% of control remaining” value was 118.569%.
Take `Clc1cc(NCc2ccc(Cl)c(Cl)c2)n2nccc2n1` [CBK037043]: the “% of control remaining” value was determined as 89.4427%.
The result for `Cn1cc(CCNC(=O)Nc2ccc(CN3CCCC3=O)cc2)cn1` [CBK305410] reads 70.2546%; that for `CO[C@]1(c2cccc(C)c2)CC[C@@H](N2CCCCC2)CC1` [CBK015909G], 117.066%; that for `CN(Cc1ccc(-c2ccc(S(C)(=O)=O)cc2)nc1)C1CCN(C(=O)c2cc(Cl)ccc2Cl)CC1` [CBK165943T], 97.5099%.
Consider `O=C(CN1C(=O)c2ccc(Br)cc2C1=O)OCc1ccc(S(=O)(=O)N2CCOCC2)cc1` [CBK267505], for which the “% of control remaining” value was determined as 154.235%.
Regarding `c1coc(-c2nnc(Nc3nc4cc5c(cc4s3)OCO5)o2)c1` [CBK287492], the “% of control remaining” value worked out at 143.312%.
The result for `Cc1sc(NC(=O)c2cc(-c3ccncc3)nc3ccc(Cl)cc23)c(C#N)c1C` [CBK267742] reads 129.68%; that for `Cc1cc(NS(=O)(=O)c2ccc(NC(=O)c3ccc(C(C)(C)C)c(Br)c3)cc2)no1` [CBK265629], 69.2808%; that for `CCn1c(CC2CCN(C(=O)CCn3nnnc3C)CC2)nn(C)c1=O` [CBK307400], 123.228%.
`CC1CCc2n[nH]c(C(=O)NCCCC3CCOC3)c2C1` (centres unmarked) [CBK283212]: the “% of control remaining” value was 113.075%.
As for `CS(=O)(=O)NC1CCN(c2nc(C(=O)O)nc3ccccc23)CC1` [CBK304316N], the “% of control remaining” value came to 126.533%.
As for `Cc1cc(C)n(CC(=O)N2CCCC2c2cc3cccnc3[nH]2)n1` (centres unmarked) [CBK285074], the “% of control remaining” value was found to be 116.704%.
On to `CCC(C)(C)C1CCC(NC(=O)CSCCC(=O)O)CC1` (centres unmarked) [CBK296674], for which the “% of control remaining” value is reported as 110.599%.
`COCc1cc(C)nc(NCCO)c1C#N` [CBK262556]: the “% of control remaining” value is given as 104.693%.
Turning to `COc1cc(NC(=O)NCc2cncn2CC(C)C)c2ncccc2c1` [CBK307182], the “% of control remaining” value amounted to 138.773%.
In the case of `NC(=O)CN1CC2(CCN(Cc3cccc(C(F)(F)F)c3)CC2)c2ccccc21` [CBK126776], the “% of control remaining” value worked out at 108.076%.
With `Cc1ccc(NC(=O)CSc2nnc(COc3ccc(Cl)cc3Cl)o2)cc1Cl` [CBK264113], the “% of control remaining” value was 121.823%.
Take `O=C(CSc1nccn1C1CC1)Nc1ccc(CN2CCOCC2)cc1` [CBK306071]: the “% of control remaining” value turned out to be 143.913%.
As for `Cc1ncc(CN(C)C(=O)Nc2cccc(C(=O)N3CCOCC3)c2)s1` [CBK305984], the figure is 130.037%; as for `Cc1cc(C)nc(SCC(=O)Nc2cc(C(=O)O)cc([N+](=O)[O-])c2)n1` [CBK268937], 142.329%; as for `CC(C)(C)OC(=O)N1CCC(c2nc(-c3cccnc3)no2)CC1` [CBK304332], 148.485%.
As for `CCn1c(SCC(=O)Nc2ccccc2OC)nnc1-c1ccc(N)cc1` [CBK265859], the figure is 148.927%; as for `COCCCn1c(=O)[nH]c2ncc(-c3ccc(C(=O)N4CCOCC4)cc3)nc21` [CBK064366], 106.491%.
As for `COc1ccc(OC)c(-n2c(S)nnc2Cn2c(-c3ccccn3)nc3ccccc32)c1` [CBK269320], the figure is 122.762%; as for `COc1cc(NC(=O)CC2NC3CCCCC3NC2=O)cc(OC)c1OC` (centres unmarked) [CBK270012], 153.404%; as for `Cc1cc(S(=O)(=O)Nc2ccc(C(C)(C)C)cc2)sc1C(=O)O` [CBK297946], 138.065%.
Consider `Cc1ccc(C(=O)NCC(c2ccccc2Cl)N2CCOCC2)c(=O)[nH]1` (centres unmarked) [CBK305928], for which the “% of control remaining” value was 109.674%.
For `CN1C(=O)c2ccc(NS(C)(=O)=O)cc2C1=O` [CBK038158], the “% of control remaining” value is given as 102.981%.

For the origin of these results see article PMC12040169 (PLOS Biology, 2025).
